# Measurements as given in PubChem BioAssay AID2685 (National Center for Advancing Translational Sciences (NCATS), 2010).
# In all, about 320,000 compounds went through this assay and about 2,100 (0.66%) were called active. Inconclusive results, whose numbers are uncertain, are shown with a selection of clear calls. The call rests on the fitted dose curve; in most records, active means well fitted inhibition curve with a large enough effect in the signal ratio, with a control signal flat (not every such curve was filed as active); inconclusive means small, poorly fitted or top-dose-only effect, or effect the other way, or a change in a side signal; inactive means flat fitted curve, though single readings scatter; the % refers to the signal ratio. A potency beside an inconclusive call is a rough fit, not a confirmed value.
# Assay: qHTS Assay for Lipid Storage Modulators in Drosophila S3 Cells
# Details: BODIPY lipid droplet fluorescence, 18-24 h, cells fed with added oleic acid; lipid storage change, negative = inhibition: at 46.1 µM (top of the series) unless noted
# How it was run: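 Drosophila S3 cells got compounds at several concentrations plus oleic acid (400 uM solution). Laser-scanning cytometry with 488 nm excitation read lipid droplets at 500-530 nm and cells at 575-640 nm. Percent activity was relative to 20 uM Triacsin C.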
# On the % scale 0 is the no-effect control and ±100 the full control effect; potency means the concentration at half of the fitted maximal effect.
Compound,"lipid storage change, negative = inhibition",Potency
COc1ccccc1NS(=O)(=O)c1cccc(C(=O)N/N=C(\C)c2ccncc2)c1,inconclusive: 6.87%,–
COc1ccc(S(=O)(=O)Nc2ccc(F)cc2)cc1N(C)S(=O)(=O)c1ccc(Cl)cc1,inconclusive: -35.8%,–
Cc1ccc(N=Nc2cc(C)ccc2O)c(C)c1,–,"inconclusive: 3.26 µM [falling, full curve]"
CCC(=O)Nc1ccc(S(=O)(=O)c2ccc(NC(=O)CC)cc2)cc1,–,active: 10.3 µM
Cc1ccc(S(=O)(=O)Nc2cc(C)on2)cc1,inconclusive: -12.4%,–
O=C(c1ccc(Cl)c(NC2=NC3CS(=O)(=O)CC3S2)c1)N1CCN(c2ccccc2)CC1 (stereo not drawn),inconclusive: -40.7%,–
Cc1cccc2c(=O)oc(-c3ccccc3Cl)nc12,–,"inconclusive: 16.4 µM [activator, single point]"
[O-][n+]1onc2c1CCc1[nH]c(-c3ccccc3)nc1-2,inconclusive: -21.8%,–
CCc1cc(C(=O)N2CCCC(C(=O)c3cccc4ccccc34)C2)n(C)n1 (stereo not drawn),inconclusive: -29.1%,–
Cc1ccc(NC(=O)CSCC(=O)Nc2ccccc2N2CCCC2)cc1,inconclusive: 11.9%,–
COc1ccc(-c2nc(CN(Cc3cnn(C)c3)C(C)C)c(C)o2)c(OC)c1,inconclusive: -23.3%,–
NS(=O)(=O)c1ccc(N=Nc2c(O)c(C(=O)O)cc3ccccc23)cc1,inactive: -1.28%,–
Cc1ccc(NC(=O)Cn2sc3nc(C)cc(C)c3c2=O)c(Cl)c1,–,"inconclusive: 4.11 µM [falling, partial curve, poor fit]"
COc1ccc(CCNC(=O)C(=O)NCC2OCCN2S(=O)(=O)c2ccc(OC)c(OC)c2)cc1OC (stereo not drawn),–,"inconclusive: 7.31 µM [activator, single point]"
O=C(CNC(=O)C1CCCCC1)Nc1ccc(Cl)cc1,–,"inconclusive: 16.4 µM [activator, single point]"
Cc1ccc(S(=O)(=O)N2CCCC2C(=O)NCCc2nc3ccccc3[nH]2)cc1 (stereo not drawn),inconclusive: -16.3%,–
COc1ccc(C(=O)C[n+]2ccc(N(C)C)cc2)cc1,inconclusive: 13.6%,–
CC1CC(C)CN(C(=O)c2ccc3c(c2)OCCO3)C1 (stereo not drawn),inconclusive: -2.06%,–
COc1ccccc1N1C[C@@H]2C[C@@H](c3ccco3)N3CCC[C@@]23C1=O,inconclusive: -18.3%,–
O=C(CNC(=O)c1cccc(Br)c1)N/N=C/c1cccs1,–,"inconclusive: 25.9 µM [activator, partial curve, poor fit]"
C/C=C(/C)C(=O)O[C@@H]1[C@H](OC(=O)C=C(C)C)c2c(ccc3ccc(=O)oc23)OC1(C)C,inconclusive: -13.3%,–
COc1ccccc1C(=O)O/N=C(/C)c1ccc(N2C(=O)C3CCCCC3C2=O)cc1 (stereo not drawn),–,"inconclusive: 6.51 µM [rising, single point]"
COc1cccc(C(C(=O)NC2CCCCC2)N(C(=O)c2cccs2)c2ccc3c(c2)OCO3)c1 (stereo not drawn),inconclusive: 5.92%,–
CCCC1CCC(C(=O)Nn2cnc3ccccc3c2=O)CC1 (stereo not drawn),–,"inconclusive: 6.51 µM [falling, single point]"

Compound,"lipid storage change, negative = inhibition",Potency
Cc1ccc(-c2nc(C3CCN(S(C)(=O)=O)CC3)no2)cc1,inconclusive: 38.9%,–
OCCC1CN(CC#Cc2ccccc2)CCN1Cc1ccccc1F (stereo not drawn),inconclusive: 187%,–
CCN1CCc2c(sc(NC(=O)Nc3ccc(Cl)c(Cl)c3)c2C(N)=O)C1,–,"inconclusive: 16.4 µM [falling, single point]"
O=C(CN(Cc1ccc(Cl)cc1)C(=O)CNS(=O)(=O)c1ccc(F)cc1)NCC1CCCO1 (stereo not drawn),–,"inconclusive: 0.116 µM [activator, single point]"
Cc1cc(NC(=O)c2cc([N+](=O)[O-])cc([N+](=O)[O-])c2)no1,inactive: -20.4%,–
COc1ccc([C@@H]2CC=C(C(=O)O)[C@H](c3cccc(Cl)c3)N2S(=O)(=O)c2ccc(Cl)cc2)cc1,inconclusive: 0.344%,–
O=C(CCNC(=O)c1ccc(Br)cc1)NC1CCCc2ccccc21 (stereo not drawn),inconclusive,–
COc1ccc(C2(C)NC(=O)N(CC(=O)Nc3ccc(C)cc3Br)C2=O)cc1OC (stereo not drawn),–,"inconclusive: 11.6 µM [activator, single point]"
Cc1ccc(-c2cc(C(=O)Nc3nn[nH]n3)c3ccccc3n2)c(C)c1,inconclusive: 19.8%,–
COc1ccccc1N1CCN(C(=O)c2c(-c3c(F)cccc3Cl)noc2C)CC1,inconclusive: 27%,–
Cc1c(NC(=O)C(C)Sc2nccn2C)c(=O)n(-c2ccccc2)n1C (stereo not drawn),–,"inconclusive: 1.64 µM [falling, partial curve]"
CS/C(=C/[N+](=O)[O-])Nc1cccc2c1C(C)CC2(C)C (stereo not drawn),inconclusive: 24.4%,–
Brc1ccc2nc3c(n2c1)CCCC3,inconclusive: 11%,–
CC(=O)c1cccc(CN2CCC(C(=O)Nc3ccc(-c4cccc(C)c4)cc3)CC2)c1,inconclusive: -66%,–
Cc1ccc(C(=O)NC(=S)NNC(=O)c2ccccc2)cc1,–,"inconclusive: 29.1 µM [falling, single point]"
CCCC(O)(CCC)C(=O)NN(C(=O)OC)c1ccccc1,inactive: 7.85%,–
S=C(Cc1cccnc1)N1CCOCC1,–,"inconclusive: 0.411 µM [falling, single point]"
COc1ccc(N2CCN(CC(=O)NC(=O)NC(C)(C)C)CC2)cc1,inconclusive: 1.73%,–
COc1ccc(-c2cc3ccc(OCC(C)=O)cc3oc2=O)cc1,inconclusive: 2.34%,–
COc1ccc(OC)c(/C(O)=C/C(=O)C(=O)Nc2cc(C)ccc2OC)c1,inconclusive: -0.265%,–
CCCCNC(=O)c1ccccc1NC(=O)c1ccc2c(c1)OCO2,–,"inconclusive: 2.06 µM [cytotoxic, partial curve]"
Cc1cc(N2CCOCC2)ccc1/C=C1\NC(=O)N(Cc2ccccc2)C1=O,–,"inconclusive: 0.13 µM [activator, full curve, poor fit]"
COC(=O)c1ccc(NC(CC(C)C)C(=O)OC)c([N+](=O)[O-])c1 (stereo not drawn),inconclusive: 37.6%,–
Cc1ccc2c(c1)C(O)(CC(=O)/C=C/C=C/c1ccccc1)C(=O)N2 (stereo not drawn),–,"inconclusive: 6.51 µM [activator, partial curve]"

# Four structures already listed, ordered by number of heavy atoms, descending:
Compound,"lipid storage change, negative = inhibition",Potency
COc1ccc(C2(C)NC(=O)N(CC(=O)Nc3ccc(C)cc3Br)C2=O)cc1OC (stereo not drawn),–,"inconclusive: 11.6 µM [activator, single point]"
COc1ccc(OC)c(/C(O)=C/C(=O)C(=O)Nc2cc(C)ccc2OC)c1,inconclusive: -0.265%,–
OCCC1CN(CC#Cc2ccccc2)CCN1Cc1ccccc1F (stereo not drawn),inconclusive: 187%,–
Cc1ccc2c(c1)C(O)(CC(=O)/C=C/C=C/c1ccccc1)C(=O)N2 (stereo not drawn),–,"inconclusive: 6.51 µM [activator, partial curve]"
